Experimental data reported in PubChem BioAssay AID1347423 (Functional Genomics Laboratory (NCATS/FGL), 2020).
Hit rate of the full screen: of about 52,000 sequences, about 210 (0.4%) were called active.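 The calls were made as follows: active = gene whose silencing raises cell survival under the drug, median off-target-corrected z-score across its silencing RNAs 2 or more; inactive = the rest.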 The list shows a part of the results.

Experiment: Resistance to Poly (ADP-Ribose) Polymerase inhibitor: Gene Identification via Genome-wide siRNA Screen
Conditions: mouse BRCA2 R2336H ES cells, olaparib, CellTiter-Glo viability; hits give high values
In short: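 Mouse BRCA2 R2336H ES cells were reverse-transfected with siRNA (20 nM final), treated at 48 h with 500 nM olaparib, and read by CellTiter-Glo after 72 h. Scores: MAD-based z per siRNA, median per gene, seed off-target correction.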

Sequence | z-score
GCCCUCUCACAUCAGUAUUTT against 4921521K07Rik | inactive: 0.323
GGGCCCUGUUUCAAAACUUTT against 2810446P07Rik | inactive: 1.89
GCCCAGUUUGGUUAUGUAUTT against 2310016N21Rik | inactive: -0.249
GCAGCUUUAGGUCCAUUCGTT against Pkd2l2 | inactive: 0.744
GCAAGGCCUAAUGGUCAGATT against Cnga3 | inactive: -1.49
GCUGAAAAGCAGAAGCCACTT against 2610028H24Rik | inactive: 0.781
GGAUCUGCUGAUGCUUCCATT against Cstf1 | inactive: -0.548
GGUUUAGAAUGCAUAACAGTT against 2810039F03Rik | inactive: -0.79
GGAAUACCAGGAAUACGAGTT against Sncb | inactive: 1.85
GGAUUCCUACAGGUGUGAATT against 4930503E14Rik | inactive: -1.1
GGAAUGGAUACUUAUCUCUTT against Tef | inactive: -0.232
GGCAAAUAUUUCCAAGUACTT against Pgcp | inactive: -0.778
CCUGUCGUUCCCUUAAAUATT against 2210409M21Rik | inactive: 0.215
GGACAAUACCUACCUCGCATT against Polr3d | inactive: -1.12
GCUCAACUUACGUUCACUCTT against Tcfl1 | inactive: -1.36
GCUCUCGACUCUUUACACUTT against Nfatc2ip | inactive: 0.875
CGGGCUCUUGUAGAUUUCATT against D19Ertd678e | inactive: -1.14
CCCAGACAUUACAUGGCCUTT against Cldn6 | inactive: 0.91
GCACCUAGUAUUGAAAGUCTT against Ccna2 | inactive: -0.394
GGGAUCCUUAUUUCAUACUTT against Olfr868 | inactive: 1.3
GUGAAGAGGAGCAGGACUUTT against Klrc3 | inactive: -2.95
GGGAUAUGUGAUUAUUUACTT against 1110001J12Rik | inactive: 1.83
GGAGAUCUAUCUGGUCCAUTT against 2210013M04Rik | inactive: 0.117
AGGGCGAUGCCAUUUCUUATT against 5930434B04Rik | inactive: -0.433
GGAGAUUGUUAUGCAAAAATT against Dnahc5 | inactive: -0.673
CCUAAGGUUGUCUGUAAAUTT against Ndufs3 | inactive: -1.09

Sequence | z-score
GGAUAACAAAAACAGCAUUTT against 9930036E21Rik | inactive: 0.743
GGAGGACAUUGAUGUGAUGTT against Sag | inactive: -0.276
GGUCACUGUCAUCAACAGATT against Il6st | inactive: 2.1
CCUUGAUGUCACAUGUAUUTT against Gbif | inactive: 0.601
CCGAACAGAGGAAGAAGGCTT against Olfr816 | inactive: 0.0384
GGACUGUUUUGAGAAUUGATT against Vil1 | inactive: 1.15
CGCGAUAACGAAGAACAAUTT against Tmod3 | inactive: 0.0782
GCUGGAAUAUAGGAAUGUCTT against Pex11c | inactive: -1.46
GCUAGACCAACCUGAUUGGTT against 1200016B17Rik | inactive: -0.109
GGAUGAGUUCUUUAUGGAGTT against Cdh15 | inactive: 1.39
GCACCUAAGAUCACAGCCUTT against Sh3gl1 | inactive: -0.436
CCGUCUUCUGCUGUGGAACTT against Ctrc | inactive: 2.18
UGCUCUCAAGCUUCAUUCUTT against Rarb | inactive: 0.602
CCGGAUUGUGAUCUGUUACTT against Bckdha | inactive: -0.178
GGAGAAAAAUCCUACCGACTT against 9830124H08Rik | inactive: 0.495
CCCUCCAAGAUAGAAGCGGTT against 2610021K21Rik | inactive: 0.124
GCAUGAAUUGUGGAAGAGATT against Csnk1a1 | inactive: -0.482
GGUAUCUGUGCAAGGGCAATT against Defb5 | inactive: -2.57
GGACAGGAUCAGAGAAAGATT against B230208J24Rik | inactive: -1.88
GGUCCUCAACUACAUUUUUTT against D13Wsu14e | inactive: 0.304
GGCCACUUGAGAACAUUCGTT against Nola3 | inactive: -1.15
GGUAAUAAGUCCCAUUUUCTT against Prpmp5 | inactive: 1.16
GGCAGCACCUAAACAAAAGTT against Rpl24 | inactive: -2.89
CAAUAACAGCGAAACAUCCTT against Scn4b | inactive: 2.18
GCUAUUGCCUCAUCUUAUGTT against Olfr654 | inactive: 0.548
GGACAUGUGUCCAGUUUUCTT against Sspn | inactive: -0.313

Random excerpt: 2 entries already listed, in no set order.
Sequence | z-score
GGCAAAUAUUUCCAAGUACTT against Pgcp | inactive: -0.778
GGCCACUUGAGAACAUUCGTT against Nola3 | inactive: -1.15

Additional results follow:

Sequence | z-score
GCUUCAAGUGAGUCUCACUTT against Nup35 | inactive: 0.035
GAAAUGUACCUGCCUUUUCTT against D830030K20Rik | inactive: -0.0579
CCGGAAAACAAAAUUGCUATT against Obp1a | inactive: -0.697
GGAGCAUCAUUUUAACACUTT against Tubd1 | inactive: 1.12
GGGAAGCAGAAAUGAGAAATT against Pdcd5 | inactive: -0.672
CCUCAUGCAGCUCAAUCUATT against Prelp | inactive: 0.988
CGUAUUCCAAAUACACUUGTT against Meox2 | inactive: -0.234
GGGCAAGUUUGUGGAGCUUTT against Akr7a5 | inactive: 1.43
GGUGAUUCCAGACUCGGAUTT against 2700099C19Rik | inactive: -1.04
GUGGCACCUUUGGUGAAGCTT against Kiss1 | inactive: -0.176
GGGUUAUGUCUGUGGAGCUTT against Bcl2l2 | active: 1.54
GGUCAAAGCAAGAAGAUGATT against 9-Sep | inactive: -1.92
GCUCUACAUGUUUAUCACATT against Olfr311 | inactive: 1.02
GGUUUUGGACACACUAUUUTT against Tmem34 | inactive: -0.311
GGAUCAUCUCCUCUACUCUTT against Olfr394 | inactive: 1.27
GCUUGUUCAGUUAACAAGATT against D19Ertd703e | inactive: 1.69
GGAAGCUGUGCUGAAUGGUTT against Atp5l | inactive: -0.307
GGUUUGUGUGGUUUUUCCUTT against 2810441K11Rik | inactive: 0.829
GGAACACACAAUUUUAUCATT against 4933436I01Rik | inactive: 1.18
GCCGUAAGCUAGGAUCUGGTT against 1700065D16Rik | inactive: -0.682
CCGUAAAAAAUUCUGUAAGTT against Ube2l3 | inactive: 0.615
GCCGCUGUCCAUCUUUAUGTT against Cecr6 | inactive: 0.865
GCACUAAAACCCAAUCAGATT against Fmnl3 | inactive: 0.207
GGCCAAAUACGUCAAGAGCTT against 1700012H17Rik | inactive: -0.203
GGGCACCUUAUACCAUAGATT against Bfar | inactive: -1.04
GGAACUGGCCAAGUUUAAATT against Ing3 | inactive: -1.02

Some values from the list.
In z-score, GCCGUAAGCUAGGAUCUGGTT against 1700065D16Rik reads inactive: -0.682
In z-score, GGAGCAUCAUUUUAACACUTT against Tubd1 reads inactive: 1.12
In z-score, GCUUCAAGUGAGUCUCACUTT against Nup35 reads inactive: 0.035

Next entries

Sequence | z-score
GGCUUGAUCCUUAGCUUAATT against Gpld1 | inactive: 0.261
GCGGAGAUGUACACAAAAGTT against Nqo2 | inactive: -0.708
GGCCAAAGCUGAUAUGACATT against Ankrd5 | inactive: -0.152
GGAACACCUUGAAUGAUGUTT against 1700007I06Rik | inactive: -0.248
CCACAGUAUCAUGUAACUATT against Il1a | inactive: 1.39
CCUGUGAGAUAAGCGAAGCTT against Edil3 | inactive: 0.417
GGAUUGGAUUUCUUAGUUCTT against Myo1c | inactive: 0.131
GGUAUUUCUACUGUGACAGTT against Olfr1055 | inactive: -0.708
GGAGACCUUACCACUUGAATT against Ephx1 | inactive: 0.474
GCCUCUUCAAUCACAUUUATT against Atp6v0a4 | inactive: -0.588
CGACAUUGAUAUCGUGCGCTT against Gadd45g | inactive: -0.138
GGCAAUUUGGAUACCAGGATT against Zfp191 | inactive: 2.09
GUAGACCGAAACCACUUCCTT against Refbp2 | inactive: -2.01
GGCCAUUGGCUGGACAAAUTT against Mppe1 | inactive: 0.756
GGAAGUUUUGGCUUAGGCATT against 4930563P21Rik | inactive: -1.25
GGUUAACCCAAUGCCAGUGTT against Cyba | inactive: -1.74
GGUUCAGUCCUUCUUAACATT against 9130005N14Rik | inactive: -0.706
GGAGAACAAGGCAAAAGAATT against C330043M08 | inactive: -1.89
CCAACACAACUGGUAAAAUTT against Plcb4 | inactive: 1.27
GGGUUCUGUCACUAUAAUATT against Defb10 | inactive: -0.183
GACGACUUGAUUGUAAGCATT against Amt | inactive: -0.918
GGAGAAUAUUGAGUCCUUCTT against Slc2a5 | inactive: 0.782
GGAUGACGACUGCACUUACTT against Itgb4 | inactive: 1.87
GCAACAAGCUGGUUGGCUUTT against 4933417A14Rik | inactive: 0.455
GCCAGACAAGCCUCAUUGATT against 2810406C15Rik | inactive: -2.26
